Structures can show the parent of a compound that is named as a salt. ± gives the standard deviation of the averaged measurements. This is one part of the list. Repeats are few or missing, and single values can be far off.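 Test system: a mixed pool of 41 HAP1 clones in which 61 cancer-associated proteins carry fluorescent tags inserted into introns, and each clone is identified from its image pattern. Read-outs are compared with DMSO-treated control wells. The BRD4 degrader dBET6 served as the positive control.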 Where a SMILES comes first, the peptide text is derived from it. Bridges are numbered along the chain shown (N, C = ends). [ ]: non-standard residue; d: D form. hArg = N=C(N)NCCCC[C@H](N)C(=O)O; Mpa = O=C(O)CCS

The assay has as its target BRD4 (intron 10 mScarlet tag, HAP1) (UniProt O60885). Briefly: BRD4 median nuclear fluorescence intensity change vs DMSO (log2 fold change); higher = more BRD4 protein. To be noted: 6 h.
For the compound `CO[C@@]12[C@H](COC(N)=O)C3=C(C(=O)C(C)=C(N)C3=O)N1C[C@@H]1N[C@@H]12` [mitomycin c] (10.00353425 µM), the “BRD4 median nuclear fluorescence intensity change (log2)” value was -0.105.

As to `COCCCOc1cc(C[C@@H](C[C@H](N)[C@@H](O)C[C@H](C(=O)NCC(C)(C)C(N)=O)C(C)C)C(C)C)ccc1OC` [aliskiren] (10.0003 µM), the “BRD4 median nuclear fluorescence intensity change (log2)” value stood at 0.0662.

As to `N=C(N)NCCCC[C@@H]1NC(=O)CCSSC[C@@H](C(N)=O)NC(=O)[C@@H]2CCCN2C(=O)[C@H](Cc2c[nH]c3ccccc23)NC(=O)[C@H](CC(=O)O)NC(=O)CNC1=O` [eptifibatide] (10.00039278 µM) ([Mpa][hArg]GDWPC-NH2; disulfide 1-7), the “BRD4 median nuclear fluorescence intensity change (log2)” value is -0.0474.

Regarding `CC1OC2(CS1)CN1CCC2CC1` (configuration not stated) [cevimeline] (11.8284 µM), the “BRD4 median nuclear fluorescence intensity change (log2)” value was -0.0173.

Turning to `CC(C)[C@@H]1NC(=O)[C@H](CCCCN)NC(=O)[C@@H](Cc2c[nH]c3ccccc23)NC(=O)[C@H](Cc2ccc(O)cc2)NC(=O)[C@@H](NC(=O)[C@H](N)Cc2ccc3ccccc3c2)CSSC[C@@H](C(=O)N[C@H](C(N)=O)[C@@H](C)O)NC1=O` [lanreotide acetate] (20 µM), the “BRD4 median nuclear fluorescence intensity change (log2)” value was -0.0745.

For `Nc1nc(NC2CC2)c2ncn([C@H]3C=C[C@@H](CO)C3)c2n1` [abacavir] (10 µM), the “BRD4 median nuclear fluorescence intensity change (log2)” value was -0.026.

Regarding `CN(C)[C@@H]1C(O)=C(C(N)=O)C(=O)[C@@]2(O)C(O)=C3C(=O)c4c(O)cccc4[C@@](C)(O)[C@H]3C[C@@H]12` [tetracycline] (10 µM), the “BRD4 median nuclear fluorescence intensity change (log2)” value amounted to 0.0167.

Take `CS(=O)(=O)c1ccc(C(=O)Nc2ccc(Cl)c(-c3ccccn3)c2)c(Cl)c1` [vismodegib] (20 µM): the “BRD4 median nuclear fluorescence intensity change (log2)” value was -0.023.

On to `CCCS(=O)(=O)Nc1ccc(F)c(C(=O)c2c[nH]c3ncc(-c4ccc(Cl)cc4)cc23)c1F` [vemurafenib] (20 µM), for which the “BRD4 median nuclear fluorescence intensity change (log2)” value is -0.0123.

In the case of `CCCCC(F)(F)[C@@]1(O)CC[C@H]2[C@@H](CC(=O)[C@@H]2CCCCCCC(=O)O)O1` [lubiprostone] (10 µM), the “BRD4 median nuclear fluorescence intensity change (log2)” value came out at 0.0367.

Regarding `CC/C(=C(\c1ccc(O)cc1)c1ccc(OCCNC)cc1)c1ccccc1` [endoxifen (hydrochloride)] (10 µM), the “BRD4 median nuclear fluorescence intensity change (log2)” value stood at 0.119.

Turning to `CC[C@@]1(O)C(=O)OCc2c1cc1n(c2=O)Cc2cc3c(CN(C)C)c(O)ccc3nc2-1` [topotecan hydrochloride hydrate] (20 µM), the “BRD4 median nuclear fluorescence intensity change (log2)” value is -0.136.

Take `C[C@H]1O[C@H](O[C@H]2[C@H](O)[C@@H](O)[C@@H](O[C@H]3[C@H](O)[C@@H](O)C(O)O[C@@H]3CO)O[C@@H]2CO)[C@H](O)[C@@H](O)[C@@H]1N[C@H]1C=C(CO)[C@@H](O)[C@H](O)[C@H]1O` (some centres not stated) [acarbose] (10.0006 µM): the “BRD4 median nuclear fluorescence intensity change (log2)” value was -0.00345.

As for `Nc1cc(N2CCCCC2)nc(N)[n+]1[O-]` [minoxidil] (9.95605 µM), the “BRD4 median nuclear fluorescence intensity change (log2)” value was 0.0651 ± 0.11.

For the compound `CN(C)CCOc1ccc(/C(=C(/CCCl)c2ccccc2)c2ccccc2)cc1` [toremifene] (20 µM), the “BRD4 median nuclear fluorescence intensity change (log2)” value is 0.0801.

For the compound `COc1ccc(C[C@@H]2c3cc(OC)c(OC)cc3CC[N@+]2(C)CCC(=O)OCCCCCOC(=O)CC[N@@+]2(C)CCc3cc(OC)c(OC)cc3[C@H]2Cc2ccc(OC)c(OC)c2)cc1OC` [cisatracurium besylate] (10 µM), the “BRD4 median nuclear fluorescence intensity change (log2)” value stood at 0.083.

On to `CC1(C)N=C(N)N=C(N)N1c1ccc(Cl)cc1` [cycloguanil] (11.4 µM), for which the “BRD4 median nuclear fluorescence intensity change (log2)” value turned out to be 0.00241.

For `N#Cc1ccc(C(c2ccc(C#N)cc2)n2cncn2)cc1` [letrozole] (20 µM), the “BRD4 median nuclear fluorescence intensity change (log2)” value is 0.0397.

Take `CC(=O)O[C@H]1CC[C@@]2(C)C(=CC[C@@H]3[C@@H]2CC[C@]2(C)C(c4cccnc4)=CC[C@@H]32)C1` [abiraterone acetate] (20 µM): the “BRD4 median nuclear fluorescence intensity change (log2)” value is 0.0838.

In the case of `CCCC(CCC)C(=O)O` [valproic acid] (10 µM), the “BRD4 median nuclear fluorescence intensity change (log2)” value was 0.0215.

As for `CCC(c1ccccc1)c1c(O)c2ccccc2oc1=O` (configuration not stated) [phenprocoumon] (10 µM), the “BRD4 median nuclear fluorescence intensity change (log2)” value came to 0.0482.

Regarding `CC(=O)O[C@H]1C(=O)[C@@]2(C)[C@H]([C@H](OC(=O)c3ccccc3)[C@]3(O)C[C@H](OC(=O)[C@H](O)[C@@H](NC(=O)c4ccccc4)c4ccccc4)C(C)=C1C3(C)C)[C@]1(OC(C)=O)CO[C@@H]1C[C@@H]2O` [paclitaxel] (0.065394 µM), the “BRD4 median nuclear fluorescence intensity change (log2)” value was 0.048.

Consider `COC(=O)C1=C(C)NC(C)=C(C(=O)OCC(C)C)C1c1ccccc1[N+](=O)[O-]` (configuration not stated) [nisoldipine] (9.99911 µM), for which the “BRD4 median nuclear fluorescence intensity change (log2)” value worked out at 0.0298.

Take `S=P(N1CC1)(N1CC1)N1CC1` [thiotepa] (20 µM): the “BRD4 median nuclear fluorescence intensity change (log2)” value is 0.292.

Regarding `CCCc1cc(=O)[nH]c(=S)[nH]1` [propylthiouracil] (10 µM), the “BRD4 median nuclear fluorescence intensity change (log2)” value turned out to be 0.0262.

As to `O=C1CCc2ccc(OCCCCN3CCN(c4cccc(Cl)c4Cl)CC3)cc2N1` [aripiprazole] (10.0009 µM), the “BRD4 median nuclear fluorescence intensity change (log2)” value was determined as 0.00696.

For the compound `CC[N+](C)(CC)CCOC(=O)C(O)(c1ccccc1)C1CCCCC1` (configuration not stated) [oxyphenonium bromide] (9.99928 µM), the “BRD4 median nuclear fluorescence intensity change (log2)” value came out at 0.0227.

(Values after the supplement of paper PMC11098740.)
